Test results published in publication doi:10.1101/2023.06.17.545410 (bioRxiv, 2023).
Results are given in words; binding and its absence hold for the method and conditions named. For part of these data: Binding seen in cells or lysates may run through a third protein. Some results given as binding are weak or reduced against the parent protein; the word gives no strength. For part of these data: Sequences can lack the tags named with a protein.

Experiments:
[1] = target: T1, HsTHUMPD2-HA (human THUMP domain containing protein 2 with a C-terminal HA-tag) (human) (UniProt Q9BTF0); experiment: co-IP
T1 sequence: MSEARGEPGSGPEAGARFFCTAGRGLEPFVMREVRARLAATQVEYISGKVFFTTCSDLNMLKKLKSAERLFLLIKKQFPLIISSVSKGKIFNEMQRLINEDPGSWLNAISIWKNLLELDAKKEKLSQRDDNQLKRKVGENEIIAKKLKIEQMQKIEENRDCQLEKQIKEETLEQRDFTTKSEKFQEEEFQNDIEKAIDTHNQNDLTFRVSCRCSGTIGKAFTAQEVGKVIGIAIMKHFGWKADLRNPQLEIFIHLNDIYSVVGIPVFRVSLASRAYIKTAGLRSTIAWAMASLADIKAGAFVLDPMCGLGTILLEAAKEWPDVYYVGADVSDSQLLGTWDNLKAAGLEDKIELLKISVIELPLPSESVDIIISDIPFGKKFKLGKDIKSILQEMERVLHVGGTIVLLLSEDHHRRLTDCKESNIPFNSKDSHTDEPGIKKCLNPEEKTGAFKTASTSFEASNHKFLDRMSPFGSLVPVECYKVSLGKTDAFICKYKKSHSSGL

[2] = target: T2, MmTHUMPD2 (purified) (mouse) (UniProt Q9CZB3); experiment: SEC
T2 sequence: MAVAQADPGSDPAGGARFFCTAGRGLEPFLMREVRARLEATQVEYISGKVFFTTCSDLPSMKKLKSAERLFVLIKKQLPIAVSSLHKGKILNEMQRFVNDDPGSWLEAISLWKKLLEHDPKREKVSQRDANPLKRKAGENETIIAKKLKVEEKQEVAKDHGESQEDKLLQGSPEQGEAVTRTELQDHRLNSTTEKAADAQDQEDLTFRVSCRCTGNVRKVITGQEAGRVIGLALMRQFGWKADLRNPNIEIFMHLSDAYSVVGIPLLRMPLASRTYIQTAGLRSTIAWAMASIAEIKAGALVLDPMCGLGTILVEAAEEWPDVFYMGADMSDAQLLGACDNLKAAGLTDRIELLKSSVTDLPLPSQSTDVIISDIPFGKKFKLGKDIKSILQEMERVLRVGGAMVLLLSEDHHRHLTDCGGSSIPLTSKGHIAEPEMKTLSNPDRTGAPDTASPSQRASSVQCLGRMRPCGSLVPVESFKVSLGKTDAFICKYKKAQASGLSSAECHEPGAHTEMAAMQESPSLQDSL

[3] = target: T3, DrTHUMPD2 (purified) (zebrafish); experiment: SEC
T3 sequence: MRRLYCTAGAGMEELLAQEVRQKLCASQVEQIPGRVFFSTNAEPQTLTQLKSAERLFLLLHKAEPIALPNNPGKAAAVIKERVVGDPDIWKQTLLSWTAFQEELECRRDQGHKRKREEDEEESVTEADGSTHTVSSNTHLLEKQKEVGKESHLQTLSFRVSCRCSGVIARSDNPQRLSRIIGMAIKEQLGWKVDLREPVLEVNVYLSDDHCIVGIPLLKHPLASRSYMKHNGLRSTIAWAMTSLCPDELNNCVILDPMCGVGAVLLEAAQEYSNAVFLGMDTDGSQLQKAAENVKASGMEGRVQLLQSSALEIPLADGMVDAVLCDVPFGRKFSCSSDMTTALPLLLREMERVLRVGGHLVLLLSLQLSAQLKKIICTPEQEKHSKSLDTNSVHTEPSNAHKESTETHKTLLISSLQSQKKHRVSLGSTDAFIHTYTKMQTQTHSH

B1: HsTRMT112 (purified) (natural protein, human, UniProt Q9UI30-1 1-125, looked up)
chain: MKLLTHNLLSSHVRGVGSRGFPLRLQATEVRICPVEFNPNFVARMIPKVEWSAFLEAADNLRLIQVPKGPVEGYEENEEFLRTMHHLLLEVEVIEGTLQCPESGRMFPISRGIPNMLLSEEETES
Q: How did the binding [1] turn out when B1 was run?
A: Its binding is “binds”.

B2: MmTRMT112 (purified) (protein, UniProt Q9DCG9 1-125)
chain: MKLLTHNLLSSHVRGVGTRGFPLRLQATEVRINPVEFNPEFVARMIPKVEWAALVQAADTLNLAEVPKEPTEGYEHDETFLRKMHHVLLEVDVLEGTLQCPESGRLFPISRGIPNMLLNDEETET
Q: Which binding [2] does the source give for B2 here?
A: The binding was “binds”.

B3: DrTRMT112 (purified) (protein, UniProt Q503F3 1-122)
chain: MKLLTHNMLTSHVKGVTKGYPLIIKATEVKVNELDFNAQFVSRMIPKLEWPALVQAAEWLGQSQELPDTLIPDYENDEEFLRKVHRVLLEVEVIEGCLQCPESGREFPISKGVPNMLLNEGE
Q: Which binding [3] does the source give for B3 here?
A: Its binding is “binds”.
